Among the data in publication PMC5017703, “The Neurite Outgrowth Inhibitory Nogo-A-Δ20 Region Is an Intrinsically Disordered Segment Harbouring Three Stretches with Helical Propensity” (PLoS ONE, 2016) are binding values, retold here.

The target of test [1] is T1, Nogo-A-Δ20 (residues 544–725 of the rat Nogo-A sequence) (rat), Q9JK11.
T1 chain: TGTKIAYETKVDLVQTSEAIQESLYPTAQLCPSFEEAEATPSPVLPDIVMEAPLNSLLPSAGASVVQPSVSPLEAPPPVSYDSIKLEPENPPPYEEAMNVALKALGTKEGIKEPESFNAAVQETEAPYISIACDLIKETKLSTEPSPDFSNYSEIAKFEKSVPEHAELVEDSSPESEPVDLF
Briefly: NMR titration; [15N,1H]-HSQC of 15N-labelled Nogo-A-Δ20 (30, 88 or 120 μM) in PBS; ECL2 added at 1:1 and 1:3 (pH 7.4 and 6.4; 6°C and 15°C); ECL3 added at 1:3 (pH 7.4, 6°C, with or without 5 mM TCEP or 4 mM ZnCl2); chemical shift differences and intensity ratios; both purified. The settings on record: remark: other sources report otherwise.

Test [2] deals with T1, Nogo-A-Δ20 (residues 544–725 of the rat …). Nature of the test: condition: 10 μM Nogo-A-Δ20 in the cell, 150 μM ECL peptide in the syringe; ITC; ECL peptide 150 μM in the syringe titrated into 10 μM Nogo-A-Δ20 in the cell, PBS pH 7.4, 25°C, MicroCal VP-ITC; both purified. The settings on record: remark: other sources report otherwise.

No constants are given. Whether binding was seen depends on the method and setting.

As for SILLLDSTCPVRACPVLYK [extracellular loop 3 (ECL3) of sphingosine 1-phosphate receptor 2 (S1PR2)], the binding result is reported as “no binding (tested: 1 to 3 ratio, 120 μM Nogo-A-Δ20)” in test [1] and “no binding” in test [2].
